Experimental data published in patent US20190048090A1.
These are yes or no findings as the source states them, for the method shown. Binding calls can cover weak binding; strength is not graded here.

Chains of the proteins cited; added tags and fusions are not shown. Lines headed by an entry give the natural chain unless they say otherwise; changes in a name come on top.
UniProt P17301: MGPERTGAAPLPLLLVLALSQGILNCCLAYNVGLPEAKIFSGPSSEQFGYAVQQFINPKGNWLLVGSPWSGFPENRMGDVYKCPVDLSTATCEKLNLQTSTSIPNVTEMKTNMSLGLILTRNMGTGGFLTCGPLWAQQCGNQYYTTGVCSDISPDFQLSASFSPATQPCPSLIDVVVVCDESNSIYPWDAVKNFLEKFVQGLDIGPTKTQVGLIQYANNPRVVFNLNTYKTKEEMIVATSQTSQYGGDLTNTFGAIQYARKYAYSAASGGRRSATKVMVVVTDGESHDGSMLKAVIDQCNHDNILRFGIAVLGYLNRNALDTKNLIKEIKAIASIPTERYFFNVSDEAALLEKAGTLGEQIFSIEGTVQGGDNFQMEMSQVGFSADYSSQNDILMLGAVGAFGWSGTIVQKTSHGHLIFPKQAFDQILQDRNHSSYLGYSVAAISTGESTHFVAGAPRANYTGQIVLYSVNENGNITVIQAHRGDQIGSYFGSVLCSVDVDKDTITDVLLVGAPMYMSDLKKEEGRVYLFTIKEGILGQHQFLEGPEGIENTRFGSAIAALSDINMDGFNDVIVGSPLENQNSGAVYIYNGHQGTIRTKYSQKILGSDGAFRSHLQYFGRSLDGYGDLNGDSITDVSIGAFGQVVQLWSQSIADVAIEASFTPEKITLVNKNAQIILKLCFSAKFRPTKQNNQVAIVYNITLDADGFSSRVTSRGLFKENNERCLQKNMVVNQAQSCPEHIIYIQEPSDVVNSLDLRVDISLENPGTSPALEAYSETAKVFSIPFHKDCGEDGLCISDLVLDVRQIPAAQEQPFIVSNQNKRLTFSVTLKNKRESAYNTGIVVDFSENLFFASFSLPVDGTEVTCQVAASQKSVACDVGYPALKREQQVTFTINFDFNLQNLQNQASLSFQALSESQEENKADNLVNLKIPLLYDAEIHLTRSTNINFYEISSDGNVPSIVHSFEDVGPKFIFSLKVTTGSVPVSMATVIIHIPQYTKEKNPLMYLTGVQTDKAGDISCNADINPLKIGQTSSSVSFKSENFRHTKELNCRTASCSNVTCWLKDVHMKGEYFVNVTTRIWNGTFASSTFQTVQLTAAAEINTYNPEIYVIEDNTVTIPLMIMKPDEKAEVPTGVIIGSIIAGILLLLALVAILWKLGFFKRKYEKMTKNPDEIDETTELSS
UniProt Q12864: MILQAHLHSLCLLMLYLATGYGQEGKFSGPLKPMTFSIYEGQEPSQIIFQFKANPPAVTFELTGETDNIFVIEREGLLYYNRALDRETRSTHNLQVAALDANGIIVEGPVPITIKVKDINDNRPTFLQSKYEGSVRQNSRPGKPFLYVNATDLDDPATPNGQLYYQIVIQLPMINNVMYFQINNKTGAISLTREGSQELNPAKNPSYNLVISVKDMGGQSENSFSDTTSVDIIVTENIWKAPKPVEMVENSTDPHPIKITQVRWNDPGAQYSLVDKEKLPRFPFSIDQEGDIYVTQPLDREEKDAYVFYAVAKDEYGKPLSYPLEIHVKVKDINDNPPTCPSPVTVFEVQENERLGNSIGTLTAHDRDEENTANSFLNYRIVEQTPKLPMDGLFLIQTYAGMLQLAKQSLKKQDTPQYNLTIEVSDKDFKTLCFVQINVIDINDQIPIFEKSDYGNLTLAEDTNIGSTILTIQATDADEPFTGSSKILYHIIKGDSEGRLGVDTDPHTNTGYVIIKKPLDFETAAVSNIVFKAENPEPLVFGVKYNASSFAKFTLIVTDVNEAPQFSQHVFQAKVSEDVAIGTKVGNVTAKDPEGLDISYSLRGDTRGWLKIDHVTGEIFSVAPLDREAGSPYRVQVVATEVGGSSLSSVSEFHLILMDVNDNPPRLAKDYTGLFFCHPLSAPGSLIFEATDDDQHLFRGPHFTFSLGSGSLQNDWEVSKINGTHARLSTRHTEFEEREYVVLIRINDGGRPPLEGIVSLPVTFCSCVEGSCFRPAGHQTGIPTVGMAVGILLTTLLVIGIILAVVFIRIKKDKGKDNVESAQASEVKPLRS

Columns and labels:
α2β1 integrin (human) [1] = molecular target: α2β1 integrin (human) (UniProt P17301); assay: affinity chromatography of KM12SM lysate, RGDS elution, western blot
α2β1 integrin (human) [2] = molecular target: α2β1 integrin (human) (UniProt P17301); assay: affinity chromatography of KM12SM lysate on immobilized domain 6, elution with RGDS peptide, western blot

recombinant CDH17 domain 6 wild type (571-665) (from UniProt Q12864)
binding (α2β1 integrin (human) [1]): binds
binding (α2β1 integrin (human) [2]): binds
